In experiment [1] the target is VEGFR-2 (mouse, endogenous in mPMVECs) (mouse (endogenous in mPMVECs)) (UniProt P35918). As to the kind of experiment: co-IP.
The target in experiment [2] is VEGFR-2 (human, endogenous in HUVECs) (human (endogenous in HUVECs)) (UniProt P35968). As to the kind of experiment: co-IP.

Amino acid sequences for entries named in this document (tags omitted). Residues count along the entry.
UniProt P35968, residues 20-1356: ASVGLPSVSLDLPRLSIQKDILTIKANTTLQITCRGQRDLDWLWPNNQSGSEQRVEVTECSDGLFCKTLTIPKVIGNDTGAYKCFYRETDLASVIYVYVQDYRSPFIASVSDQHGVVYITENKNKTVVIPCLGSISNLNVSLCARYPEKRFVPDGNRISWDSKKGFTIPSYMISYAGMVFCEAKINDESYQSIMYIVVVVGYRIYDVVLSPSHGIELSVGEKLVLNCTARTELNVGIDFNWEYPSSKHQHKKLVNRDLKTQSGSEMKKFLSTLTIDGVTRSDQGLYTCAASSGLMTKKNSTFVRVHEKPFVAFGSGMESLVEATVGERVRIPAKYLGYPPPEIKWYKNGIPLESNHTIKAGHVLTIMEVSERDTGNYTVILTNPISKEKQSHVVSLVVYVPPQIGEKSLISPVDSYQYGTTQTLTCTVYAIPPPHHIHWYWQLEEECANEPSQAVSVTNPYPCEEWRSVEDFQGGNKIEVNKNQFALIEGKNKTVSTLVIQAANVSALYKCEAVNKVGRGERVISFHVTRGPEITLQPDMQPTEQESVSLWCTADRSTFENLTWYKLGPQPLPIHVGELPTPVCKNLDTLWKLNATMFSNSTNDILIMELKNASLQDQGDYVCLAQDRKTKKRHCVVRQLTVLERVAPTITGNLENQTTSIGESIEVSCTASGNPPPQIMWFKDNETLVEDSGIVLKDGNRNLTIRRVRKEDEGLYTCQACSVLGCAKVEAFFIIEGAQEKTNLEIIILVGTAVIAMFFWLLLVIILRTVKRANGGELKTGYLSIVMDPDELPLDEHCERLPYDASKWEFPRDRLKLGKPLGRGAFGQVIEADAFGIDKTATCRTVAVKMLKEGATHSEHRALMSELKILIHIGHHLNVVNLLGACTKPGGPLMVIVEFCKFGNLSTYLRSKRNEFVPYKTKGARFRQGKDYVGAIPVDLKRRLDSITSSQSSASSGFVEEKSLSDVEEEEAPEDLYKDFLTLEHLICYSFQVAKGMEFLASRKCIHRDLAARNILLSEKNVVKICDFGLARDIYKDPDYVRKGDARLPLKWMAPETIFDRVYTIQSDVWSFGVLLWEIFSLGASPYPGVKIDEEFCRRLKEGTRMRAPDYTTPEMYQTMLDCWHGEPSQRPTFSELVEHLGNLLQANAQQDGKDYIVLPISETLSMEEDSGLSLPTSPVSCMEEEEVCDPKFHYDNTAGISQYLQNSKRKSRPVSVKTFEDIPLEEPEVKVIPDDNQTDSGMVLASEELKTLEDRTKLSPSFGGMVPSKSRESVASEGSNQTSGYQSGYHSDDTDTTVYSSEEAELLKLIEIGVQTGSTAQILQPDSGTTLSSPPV
UniProt Q03135: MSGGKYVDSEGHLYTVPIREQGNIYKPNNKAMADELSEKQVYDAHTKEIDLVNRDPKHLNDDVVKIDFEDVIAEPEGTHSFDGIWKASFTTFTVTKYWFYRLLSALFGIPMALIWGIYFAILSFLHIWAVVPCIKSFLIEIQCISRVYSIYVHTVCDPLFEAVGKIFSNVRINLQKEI
UniProt P46935: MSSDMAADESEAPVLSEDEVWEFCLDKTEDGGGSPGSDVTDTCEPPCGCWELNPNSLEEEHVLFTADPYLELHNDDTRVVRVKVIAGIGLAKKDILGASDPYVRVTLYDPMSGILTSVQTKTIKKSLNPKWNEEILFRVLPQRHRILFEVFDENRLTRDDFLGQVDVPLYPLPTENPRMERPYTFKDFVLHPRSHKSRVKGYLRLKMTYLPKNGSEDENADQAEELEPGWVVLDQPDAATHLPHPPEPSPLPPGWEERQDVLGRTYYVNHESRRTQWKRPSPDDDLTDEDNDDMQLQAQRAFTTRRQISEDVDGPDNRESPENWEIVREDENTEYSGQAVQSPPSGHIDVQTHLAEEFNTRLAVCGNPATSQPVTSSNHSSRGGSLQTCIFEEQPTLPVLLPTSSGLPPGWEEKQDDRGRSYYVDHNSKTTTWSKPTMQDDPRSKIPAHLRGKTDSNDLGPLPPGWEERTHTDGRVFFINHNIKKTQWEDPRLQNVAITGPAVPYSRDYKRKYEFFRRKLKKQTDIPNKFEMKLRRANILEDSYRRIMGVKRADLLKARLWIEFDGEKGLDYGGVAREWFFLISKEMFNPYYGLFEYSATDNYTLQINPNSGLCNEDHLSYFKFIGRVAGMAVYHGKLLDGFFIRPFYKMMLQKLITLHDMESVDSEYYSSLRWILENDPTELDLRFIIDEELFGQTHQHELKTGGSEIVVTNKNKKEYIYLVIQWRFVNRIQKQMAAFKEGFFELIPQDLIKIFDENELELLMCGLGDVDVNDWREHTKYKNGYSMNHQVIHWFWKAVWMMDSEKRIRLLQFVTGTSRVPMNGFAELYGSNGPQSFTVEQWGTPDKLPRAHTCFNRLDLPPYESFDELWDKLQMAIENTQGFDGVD

No constants are given. Whether binding was seen depends on the method and setting. In cells and extracts the contact can be indirect. Some entries that bind do so weakly or less than the wild type.

Drawing on publication doi:10.1101/2023.04.20.537746, this text covers binding for three substances.

For “c-Cbl (E3 ubiquitin ligase), endogenous in mPMVECs (from UniProt P22682 1-913) (enzyme)”, the binding result in experiment [1] is given as “binds”.

As to “Caveolin-1 (endogenous in HUVECs) (from UniProt Q03135 1-178)”, the binding entry in experiment [2] was “binds”.

“Nedd4 (E3 ubiquitin ligase), endogenous in mPMVECs (from UniProt P46935 1-887) (enzyme)”: the binding entry in experiment [1] is “binds”.
